From patent publication US20120282271A1
These are yes or no findings as the source states them, for the method shown. Some binding calls cover weakened binding; strength is not graded here. Sequences can lack the tags named with a protein.

Chains of the proteins cited; added tags and fusions are not shown. Lines headed by an entry give the natural chain unless they say otherwise; changes in a name come on top.
UniProt P26927: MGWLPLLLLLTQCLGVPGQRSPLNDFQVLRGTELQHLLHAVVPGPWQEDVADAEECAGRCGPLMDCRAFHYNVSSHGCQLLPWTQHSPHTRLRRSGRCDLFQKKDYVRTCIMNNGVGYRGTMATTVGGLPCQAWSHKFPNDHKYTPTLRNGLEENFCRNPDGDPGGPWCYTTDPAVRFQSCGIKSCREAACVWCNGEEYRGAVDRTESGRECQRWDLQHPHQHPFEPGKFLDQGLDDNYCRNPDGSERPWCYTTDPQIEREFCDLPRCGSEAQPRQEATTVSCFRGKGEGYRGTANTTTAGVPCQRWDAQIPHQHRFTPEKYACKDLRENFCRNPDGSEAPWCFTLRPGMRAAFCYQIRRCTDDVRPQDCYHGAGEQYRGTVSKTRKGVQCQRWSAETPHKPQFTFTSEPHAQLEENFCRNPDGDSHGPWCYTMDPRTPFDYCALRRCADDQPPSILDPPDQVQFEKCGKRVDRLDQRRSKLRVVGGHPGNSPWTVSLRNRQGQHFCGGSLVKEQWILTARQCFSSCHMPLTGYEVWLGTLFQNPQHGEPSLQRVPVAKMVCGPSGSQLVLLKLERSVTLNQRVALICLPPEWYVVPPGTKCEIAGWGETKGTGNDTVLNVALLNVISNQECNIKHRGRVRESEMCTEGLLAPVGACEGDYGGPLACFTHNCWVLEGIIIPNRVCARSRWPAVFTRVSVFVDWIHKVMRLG

Legend:
[1] = target: T1, Ron (Sema IPT1)-IgG fusion protein (human) (UniProt Q04912); test: SPR, Ron-Fc captured by an anti-Fc antibody on a CM5 chip, 1:1 binding model
T1 sequence (looked up): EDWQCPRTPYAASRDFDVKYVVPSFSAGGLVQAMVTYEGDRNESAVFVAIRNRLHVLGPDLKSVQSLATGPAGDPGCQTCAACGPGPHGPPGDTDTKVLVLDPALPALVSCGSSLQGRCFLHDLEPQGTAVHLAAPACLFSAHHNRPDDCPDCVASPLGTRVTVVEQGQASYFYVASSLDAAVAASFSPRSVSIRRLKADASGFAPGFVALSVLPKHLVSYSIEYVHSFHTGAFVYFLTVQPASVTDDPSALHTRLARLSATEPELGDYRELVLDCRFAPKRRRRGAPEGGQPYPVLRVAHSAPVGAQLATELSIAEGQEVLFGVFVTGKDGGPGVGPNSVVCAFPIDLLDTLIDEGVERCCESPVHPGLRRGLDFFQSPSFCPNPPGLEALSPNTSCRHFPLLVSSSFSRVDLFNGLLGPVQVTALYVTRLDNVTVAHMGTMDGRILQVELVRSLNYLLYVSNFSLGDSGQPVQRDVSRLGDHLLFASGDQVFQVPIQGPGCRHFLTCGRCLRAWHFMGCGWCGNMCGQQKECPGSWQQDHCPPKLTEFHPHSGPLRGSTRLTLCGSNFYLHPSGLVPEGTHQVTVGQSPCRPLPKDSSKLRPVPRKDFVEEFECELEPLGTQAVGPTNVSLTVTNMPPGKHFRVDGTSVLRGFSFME

[2] = target: T1, Ron (Sema IPT1)-IgG fusion protein (human); test: SPR (BIAcore-3000), Ron (Sema IPT1)-IgG captured by amine-coupled anti-human IgG on a CM5 chip, MSP injected as analyte
[3] = target: T1, Ron (Sema IPT1)-IgG fusion protein (human); test: ELISA, Ron (Sema IPT1)-IgG captured on anti-human IgG Fc coated plates, His-tagged MSP detected with anti-His-HRP

Measured: binding

hepsin-activated MSP (recombinant human macrophage-stimulating protein, C672A, cleaved by hepsin at Arg483-Val484) (from UniProt P26927 19-483; P26927 484-711) (ligand)
binds: all assays above
